Results: PMC5703881
Construct, isoform or probe ends are uncertain for at least one entry.

System: 71F12 Fab (human (acute SLE patient))
Assay: crystal structure
Conditions: 2.10 A, trinucleotide T0, T-1, T-2 visible; recombinant protein; single-stranded DNA

Sequence: TTTTT [5-mer T5]
- binding result: binds
